Experimental data from patent publication US20020084230A1, “Methods for screening drugs to predict tardive dyskinesia” (priority 1997, published 2002).
Entries after “also recorded” stand apart in the source; their conditions may differ. For at least one compound, name, drawing or mass did not settle the structure.

Assays:
[1] = Copper reduction assay (Cu(I)-BC complex, 96-well); details: 10 μM drug, 10 μM Cu(II), PBS pH 7.4, 37° C., 1 hour
[2] = Hydroxyl radical production assay (deoxyribose degradation, thiobarbituric acid-reactive products); details: with Cu(II), PBS pH 7.4, 37° C., 1 hour
[3] = Superoxide dismutase activity of the drug
[4] = Catalase activity of the drug

CN1CCN(C2=Nc3cc(Cl)ccc3Nc3ccccc32)CC1 [clozapine]
reduction of Cu(II) to Cu(I) [1]: reduces Cu(II) ions; also recorded: potent copper reduction activity | generation of hydroxyl radical [2]: did not generate hydroxyl radicals; also recorded: unable to generate OH•; also recorded: does not generate significant amounts of hydroxyl radicals | superoxide dismutase activity [3]: may have superoxide dismutase and catalase activities | catalase activity [4]: may have superoxide dismutase and catalase activities
